In the supplement of paper PMC10849652:
The list shows a part of the results.

Protein sequences, listed by entry. Tags and fused reporters are not part of them. Lines headed by an entry give the natural chain unless they say otherwise; changes in a name come on top.
UniProt P50583: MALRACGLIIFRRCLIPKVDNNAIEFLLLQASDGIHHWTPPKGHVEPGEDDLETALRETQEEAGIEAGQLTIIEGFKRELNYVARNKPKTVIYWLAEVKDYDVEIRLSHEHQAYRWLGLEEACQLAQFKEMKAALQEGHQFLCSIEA
UniProt Q86U38: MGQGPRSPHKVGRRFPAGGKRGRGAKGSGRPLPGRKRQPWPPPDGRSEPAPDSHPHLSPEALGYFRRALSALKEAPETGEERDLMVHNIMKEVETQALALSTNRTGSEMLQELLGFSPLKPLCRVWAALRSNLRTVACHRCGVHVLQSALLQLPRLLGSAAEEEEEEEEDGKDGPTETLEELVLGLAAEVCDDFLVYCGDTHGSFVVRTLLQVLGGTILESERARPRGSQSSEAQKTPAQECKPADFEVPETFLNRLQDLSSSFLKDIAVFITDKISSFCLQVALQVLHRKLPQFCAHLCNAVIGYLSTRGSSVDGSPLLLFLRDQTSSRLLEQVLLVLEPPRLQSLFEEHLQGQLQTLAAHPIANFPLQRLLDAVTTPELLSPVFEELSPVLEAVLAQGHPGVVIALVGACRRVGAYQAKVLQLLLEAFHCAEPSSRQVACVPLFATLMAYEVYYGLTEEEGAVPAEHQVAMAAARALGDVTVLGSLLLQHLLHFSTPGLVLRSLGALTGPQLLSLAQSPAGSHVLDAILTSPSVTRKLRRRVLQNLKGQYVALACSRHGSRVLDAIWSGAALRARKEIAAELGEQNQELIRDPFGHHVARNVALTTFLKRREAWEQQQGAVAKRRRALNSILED
UniProt Q96P11: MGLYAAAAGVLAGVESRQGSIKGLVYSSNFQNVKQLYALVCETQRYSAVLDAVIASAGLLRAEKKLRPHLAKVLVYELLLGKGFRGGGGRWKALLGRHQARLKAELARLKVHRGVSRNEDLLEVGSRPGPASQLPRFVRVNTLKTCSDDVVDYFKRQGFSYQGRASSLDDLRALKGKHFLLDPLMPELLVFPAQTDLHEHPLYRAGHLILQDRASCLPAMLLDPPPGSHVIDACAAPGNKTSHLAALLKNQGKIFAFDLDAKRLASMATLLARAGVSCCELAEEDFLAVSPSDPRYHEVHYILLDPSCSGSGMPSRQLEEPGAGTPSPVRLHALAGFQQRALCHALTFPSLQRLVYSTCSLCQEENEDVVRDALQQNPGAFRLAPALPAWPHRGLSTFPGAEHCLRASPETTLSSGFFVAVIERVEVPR
UniProt Q13423: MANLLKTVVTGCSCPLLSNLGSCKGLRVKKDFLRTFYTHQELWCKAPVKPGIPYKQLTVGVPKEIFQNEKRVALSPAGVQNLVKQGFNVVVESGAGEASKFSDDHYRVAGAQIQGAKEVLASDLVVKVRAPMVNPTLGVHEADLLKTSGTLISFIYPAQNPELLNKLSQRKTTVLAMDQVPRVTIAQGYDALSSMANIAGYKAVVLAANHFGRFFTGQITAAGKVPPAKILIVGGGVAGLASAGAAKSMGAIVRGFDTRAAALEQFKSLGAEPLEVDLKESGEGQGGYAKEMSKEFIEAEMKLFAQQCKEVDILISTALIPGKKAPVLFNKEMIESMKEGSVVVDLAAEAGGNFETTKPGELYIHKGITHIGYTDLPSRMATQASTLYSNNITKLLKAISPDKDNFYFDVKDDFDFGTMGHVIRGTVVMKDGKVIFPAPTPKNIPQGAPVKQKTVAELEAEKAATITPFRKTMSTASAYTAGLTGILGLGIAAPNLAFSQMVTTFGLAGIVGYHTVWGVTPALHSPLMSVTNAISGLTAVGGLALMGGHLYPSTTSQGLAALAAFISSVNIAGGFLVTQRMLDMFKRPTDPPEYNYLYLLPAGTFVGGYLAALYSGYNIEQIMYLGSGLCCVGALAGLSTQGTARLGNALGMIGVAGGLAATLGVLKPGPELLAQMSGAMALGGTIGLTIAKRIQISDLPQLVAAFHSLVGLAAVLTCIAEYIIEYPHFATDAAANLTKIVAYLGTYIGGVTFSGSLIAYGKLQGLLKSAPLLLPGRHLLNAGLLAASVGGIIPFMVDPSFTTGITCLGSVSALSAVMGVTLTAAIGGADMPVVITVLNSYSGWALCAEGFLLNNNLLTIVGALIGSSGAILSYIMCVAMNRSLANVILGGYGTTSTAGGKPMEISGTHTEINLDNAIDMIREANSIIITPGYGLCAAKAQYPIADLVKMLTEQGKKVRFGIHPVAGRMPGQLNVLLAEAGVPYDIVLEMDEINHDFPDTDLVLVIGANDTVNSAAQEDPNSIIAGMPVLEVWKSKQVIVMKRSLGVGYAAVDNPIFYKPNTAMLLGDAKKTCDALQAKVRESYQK
UniProt Q8TAT6: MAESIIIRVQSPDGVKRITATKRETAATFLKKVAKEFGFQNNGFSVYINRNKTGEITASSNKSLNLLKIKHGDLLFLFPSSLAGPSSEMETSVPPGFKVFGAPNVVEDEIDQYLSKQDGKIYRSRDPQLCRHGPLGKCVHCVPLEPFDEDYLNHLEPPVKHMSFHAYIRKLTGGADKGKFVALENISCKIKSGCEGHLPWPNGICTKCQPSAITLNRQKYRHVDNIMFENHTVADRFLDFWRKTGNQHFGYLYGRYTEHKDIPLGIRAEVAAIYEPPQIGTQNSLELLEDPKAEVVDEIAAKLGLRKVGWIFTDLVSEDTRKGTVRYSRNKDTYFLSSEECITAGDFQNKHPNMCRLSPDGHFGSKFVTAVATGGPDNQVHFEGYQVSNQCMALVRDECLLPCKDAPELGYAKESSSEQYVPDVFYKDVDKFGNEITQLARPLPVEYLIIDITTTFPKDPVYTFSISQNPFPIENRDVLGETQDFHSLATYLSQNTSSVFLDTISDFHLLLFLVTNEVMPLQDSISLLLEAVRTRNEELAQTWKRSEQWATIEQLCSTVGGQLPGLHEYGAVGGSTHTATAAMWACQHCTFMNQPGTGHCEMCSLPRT
UniProt P15531, whole entry, looked up: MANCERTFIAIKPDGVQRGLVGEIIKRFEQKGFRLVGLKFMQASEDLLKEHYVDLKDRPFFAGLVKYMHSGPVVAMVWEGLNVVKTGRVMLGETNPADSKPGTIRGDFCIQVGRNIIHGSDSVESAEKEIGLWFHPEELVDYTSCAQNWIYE
UniProt Q76FK4: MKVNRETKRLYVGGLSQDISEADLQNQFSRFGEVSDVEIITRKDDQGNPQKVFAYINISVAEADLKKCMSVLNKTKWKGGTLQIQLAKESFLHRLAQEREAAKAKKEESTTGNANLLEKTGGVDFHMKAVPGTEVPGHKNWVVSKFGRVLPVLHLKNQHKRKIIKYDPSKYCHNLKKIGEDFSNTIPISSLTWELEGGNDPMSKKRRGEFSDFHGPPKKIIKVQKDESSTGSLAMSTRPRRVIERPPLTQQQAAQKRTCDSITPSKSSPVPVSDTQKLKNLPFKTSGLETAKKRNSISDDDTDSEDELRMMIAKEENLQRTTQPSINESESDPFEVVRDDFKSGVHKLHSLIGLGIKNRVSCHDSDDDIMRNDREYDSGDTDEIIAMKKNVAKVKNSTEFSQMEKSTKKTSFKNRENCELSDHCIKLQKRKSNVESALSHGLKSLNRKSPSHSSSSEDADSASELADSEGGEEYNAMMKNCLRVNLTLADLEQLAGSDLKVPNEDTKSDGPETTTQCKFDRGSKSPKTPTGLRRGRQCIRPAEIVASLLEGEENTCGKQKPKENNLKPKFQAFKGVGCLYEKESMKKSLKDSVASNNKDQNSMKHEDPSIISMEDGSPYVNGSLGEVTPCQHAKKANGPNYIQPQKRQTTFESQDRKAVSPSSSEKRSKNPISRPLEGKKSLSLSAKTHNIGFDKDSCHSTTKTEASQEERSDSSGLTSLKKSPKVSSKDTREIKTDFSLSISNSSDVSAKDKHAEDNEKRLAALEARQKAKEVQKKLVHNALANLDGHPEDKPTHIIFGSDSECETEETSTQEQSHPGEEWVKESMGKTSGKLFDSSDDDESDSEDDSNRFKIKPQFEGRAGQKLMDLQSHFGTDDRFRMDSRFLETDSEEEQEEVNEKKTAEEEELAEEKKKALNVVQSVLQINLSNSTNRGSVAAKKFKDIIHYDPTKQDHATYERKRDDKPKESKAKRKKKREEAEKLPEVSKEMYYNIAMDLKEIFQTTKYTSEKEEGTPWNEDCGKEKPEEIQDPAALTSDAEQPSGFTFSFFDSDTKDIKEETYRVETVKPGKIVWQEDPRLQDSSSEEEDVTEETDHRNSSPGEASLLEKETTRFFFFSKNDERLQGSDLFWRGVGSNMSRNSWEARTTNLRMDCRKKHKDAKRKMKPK
UniProt Q9BRQ3: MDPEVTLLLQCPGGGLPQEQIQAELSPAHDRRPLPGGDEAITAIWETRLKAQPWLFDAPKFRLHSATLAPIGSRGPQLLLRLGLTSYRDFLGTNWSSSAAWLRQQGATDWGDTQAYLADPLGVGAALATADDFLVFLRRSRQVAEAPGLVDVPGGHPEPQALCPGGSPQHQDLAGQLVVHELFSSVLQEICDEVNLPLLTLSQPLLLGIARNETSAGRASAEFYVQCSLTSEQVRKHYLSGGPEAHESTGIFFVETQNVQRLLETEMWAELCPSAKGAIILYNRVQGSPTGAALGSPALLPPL
UniProt Q8TCD5: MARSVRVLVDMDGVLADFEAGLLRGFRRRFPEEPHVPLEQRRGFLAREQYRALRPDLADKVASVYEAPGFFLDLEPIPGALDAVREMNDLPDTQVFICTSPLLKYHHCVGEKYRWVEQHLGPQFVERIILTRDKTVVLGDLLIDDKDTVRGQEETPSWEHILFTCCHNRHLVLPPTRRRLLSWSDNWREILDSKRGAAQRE
UniProt Q9BSD7: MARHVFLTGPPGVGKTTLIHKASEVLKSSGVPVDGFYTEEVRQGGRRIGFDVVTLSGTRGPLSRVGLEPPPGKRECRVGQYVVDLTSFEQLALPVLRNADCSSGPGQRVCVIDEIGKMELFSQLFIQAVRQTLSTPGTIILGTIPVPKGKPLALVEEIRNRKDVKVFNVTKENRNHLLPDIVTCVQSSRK
UniProt Q9NQ35: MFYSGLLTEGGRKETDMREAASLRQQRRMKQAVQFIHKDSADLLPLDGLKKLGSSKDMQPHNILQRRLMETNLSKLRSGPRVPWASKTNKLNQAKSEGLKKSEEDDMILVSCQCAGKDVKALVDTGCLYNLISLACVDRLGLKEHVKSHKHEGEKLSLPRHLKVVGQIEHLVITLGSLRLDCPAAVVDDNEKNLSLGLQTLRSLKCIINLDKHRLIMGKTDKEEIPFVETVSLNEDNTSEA

Legend:
Assay in all cases: log2 fold change, soluble protein after heating vs DMSO (PISA); higher = thermal stabilisation; K562 lysate, 10 uM; active = over 0.2 and 3.5 SD of the protein, either way, in both replicates (recomputed)
vemurafenib = compound: CCCS(=O)(=O)Nc1ccc(F)c(C(=O)c2c[nH]c3ncc(-c4ccc(Cl)cc4)cc23)c1F [vemurafenib]
Outline: (§1)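 Quantification was by TMTpro 16plex LC-MS/MS with equalised channel sums, applied to the supernatant after 21,000xg for 90 min. Samples were crude K562 extract at 1 mg/mL protein in PBS pH 7.4 with 1 mM MgCl2, treated with 10 μM compound for 30 min, heated for 3 min across 48°C-58°C, pooled and brought to 0.5% NP-40 at 4°C. Values are log-two fold changes in thermal stability relative to solvent controls, from duplicates.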

[1] = compound: CCCS(=O)(=O)Nc1ccc(F)c(C(=O)c2c[nH]c3ncc(Cl)cc23)c1F
Outline: as §1

barasertib = compound: CCN(CCCOc1ccc2c(Nc3cc(CC(=O)Nc4cccc(F)c4)[nH]n3)ncnc2c1)CCOP(=O)(O)O [barasertib]
Outline: as §1

[2] = compound: CC[C@@H]1C(=O)N(C)c2cnc(Nc3ccc(C(=O)NC4CCN(C)CC4)cc3OC)nc2N1C1CCCC1
Outline: as §1

volasertib = compound: CC[C@@H]1C(=O)N(C)c2cnc(Nc3ccc(C(=O)N[C@H]4CC[C@H](N5CCN(CC6CC6)CC5)CC4)cc3OC)nc2N1C(C)C [volasertib]
Outline: as §1

[3] = compound: CCn1c(C(=O)N(C2CC2)C2CC2)cc2c3c(ncn3C)c(Nc3cc(C)n(C)n3)nc21
Outline: as §1

[4] = compound: CCn1cc(-c2ccnc3[nH]c(-c4cccc(CN(C)C)c4)cc23)c(-c2ccc(NC(=O)N(C)C)cc2)n1
Outline: as §1

[5] = compound: CN1CCC(CNc2ccc3ncc(-c4cccc(OC(F)(F)F)c4)n3n2)CC1
Outline: as §1

saracatinib = compound: CN1CCN(CCOc2cc(OC3CCOCC3)c3c(Nc4c(Cl)ccc5c4OCO5)ncnc3c2)CC1 [saracatinib]
Outline: as §1

sotrastaurin = compound: CN1CCN(c2nc(C3=C(c4c[nH]c5ccccc45)C(=O)NC3=O)c3ccccc3n2)CC1 [sotrastaurin]
Outline: as §1

alvocidib = compound: CN1CC[C@H](c2c(O)cc(O)c3c(=O)cc(-c4ccccc4Cl)oc23)[C@H](O)C1 [alvocidib]
Outline: as §1

Tubastatin A = compound: CN1CCc2c(c3ccccc3n2Cc2ccc(C(=O)NO)cc2)C1 [Tubastatin A]
Outline: as §1

[6] = compound: CNC(=O)C1=CC=CC=C1NC2=NC(=NC=C2Cl)NC3=C(C=C(C=C3)N4CCOCC4)OC
Outline: as §1

defactinib = compound: CNC(=O)c1ccc(Nc2ncc(C(F)(F)F)c(NCc3nccnc3N(C)S(C)(=O)=O)n2)cc1 [defactinib]
Outline: as §1

[7] = compound: CNc1nc(-c2ccc3c(N)n[nH]c3c2)cc(N2C[C@@H](C(=O)NC3CCCCC3)CC[C@H]2C)n1
Outline: as §1

encorafenib = compound: COC(=O)N[C@@H](C)CNc1nccc(-c2cn(C(C)C)nc2-c2cc(Cl)cc(NS(C)(=O)=O)c2F)n1 [encorafenib]
Outline: as §1

[8] = compound: COC(=O)[C@H](CCSC)NC(=O)C1=C(C=C(C=C1)NC[C@H](CS)N)C2=CC=CC=C2
Outline: as §1

alisertib = compound: COc1cc(Nc2ncc3c(n2)-c2ccc(Cl)cc2C(c2c(F)cccc2OC)=NC3)ccc1C(=O)O [alisertib]
Outline: as §1

[9] = compound: COc1cc2nc(-c3cc(F)ccc3O)nc(N[C@@H]3CNC[C@H]3C(C)(C)O)c2cc1OC
Outline: as §1

gefitinib = compound: COc1cc2ncnc(Nc3ccc(F)c(Cl)c3)c2cc1OCCCN1CCOCC1 [gefitinib]
Outline: as §1

Measured: log2 fold change

NUDT2 (UniProt P50583)
inactive: vemurafenib -0.035 | [1] 0.033 | barasertib 0.021 | [2] -0.02 | volasertib -0.022 | [3] -0.007 | [4] -0.038 | [5] 0.051 | saracatinib 0.01 | sotrastaurin -0.018 | alvocidib -0.028 | Tubastatin A -0.023 | [6] -0.025 | defactinib 0.044 | [7] 0.003 | encorafenib 0.022 | [8] -0.042 | alisertib 0.04 | [9] -0.037 | gefitinib -0.079

NOP9 (UniProt Q86U38)
inactive: vemurafenib -0.047 | [1] -0.034 | barasertib 0.003 | [2] -0.083 | volasertib -0.018 | [3] 0.093 | [4] 0.151 | [5] -0.087 | saracatinib 0.057 | sotrastaurin 0.014 | alvocidib 0.064 | Tubastatin A 0.005 | [6] -0.08 | defactinib 0.028 | [7] -0.019 | encorafenib 0.033 | [8] 0.008 | alisertib 0.007 | [9] -0.028 | gefitinib 0.057

NSUN5 isoform 2 (UniProt Q96P11)
inactive: vemurafenib 0.002 | [1] 0.009 | barasertib 0.08 | [2] -0.036 | volasertib -0.04 | [3] 0.053 | [4] -0.074 | [5] -0.011 | saracatinib 0.012 | sotrastaurin 0.033 | alvocidib 0.029 | Tubastatin A -0.049 | [6] -0.015 | defactinib 0.003 | [7] -0.08 | encorafenib 0.004 | [8] -0.005 | alisertib -0.004 | [9] 0.018 | gefitinib 0.038

NNT (UniProt Q13423)
inactive: vemurafenib 0.012 | [1] -0.015 | barasertib 0.013 | [2] 0.022 | volasertib 0.031 | [3] -0.004 | [4] 0.041 | [5] -0.004 | saracatinib -0.025 | sotrastaurin -0.024 | alvocidib 0.006 | Tubastatin A 0.035 | [6] 0.021 | defactinib -0.005 | [7] -0.04 | encorafenib -0.018 | [8] -0.017 | alisertib -0.001 | [9] 0.021 | gefitinib 0.012

NPLOC4 isoform 2 (UniProt Q8TAT6)
inactive: vemurafenib -0.011 | [1] 0.025 | barasertib -0.019 | [2] 0.025 | volasertib -0.011 | [3] -0.016 | [4] -0.066 | [5] 0.007 | saracatinib 0.004 | sotrastaurin -0.005 | alvocidib -0.06 | Tubastatin A 0.013 | [6] 0.019 | defactinib -0.007 | [7] 0.043 | encorafenib 0.021 | [8] 0.016 | alisertib 0.004 | [9] -0.007 | gefitinib -0.018

NME1 isoform 2 (UniProt P15531)
inactive: vemurafenib 0.066 | [1] 0.015 | barasertib -0.007 | [2] -0.024 | volasertib 0.004 | [3] -0.008 | [4] 0.067 | [5] 0.029 | saracatinib -0.025 | sotrastaurin -0.031 | alvocidib 0.057 | Tubastatin A 0.052 | [6] 0.068 | defactinib 0.019 | [7] -0.049 | encorafenib -0.013 | [8] -0.031 | [9] -0.012

NOL8 (UniProt Q76FK4)
inactive: vemurafenib 0.113 | [1] -0.087 | volasertib -0.04 | [3] 0.073 | [4] -0.207 | [5] -0.1 | saracatinib -0.053 | sotrastaurin 0.023 | alvocidib 0.004 | Tubastatin A -0.041 | [6] 0.105 | defactinib -0.099 | [7] 0.049 | [9] 0.115

NUDT22 (UniProt Q9BRQ3)
inactive: vemurafenib -0.11 | [1] 0.036 | [2] -0.075 | volasertib 0.004 | sotrastaurin -0.027 | [6] 0.241 | defactinib 0.029 | encorafenib 0.072 | [8] 0.071 | alisertib -0.022 | [9] 0.005 | gefitinib -0.019

2 successive records from above:
NPLOC4 isoform 2 (UniProt Q8TAT6)
inactive: vemurafenib -0.011 | [1] 0.025 | barasertib -0.019 | [2] 0.025 | volasertib -0.011 | [3] -0.016 | [4] -0.066 | [5] 0.007 | saracatinib 0.004 | sotrastaurin -0.005 | alvocidib -0.06 | Tubastatin A 0.013 | [6] 0.019 | defactinib -0.007 | [7] 0.043 | encorafenib 0.021 | [8] 0.016 | alisertib 0.004 | [9] -0.007 | gefitinib -0.018

NME1 isoform 2 (UniProt P15531)
inactive: vemurafenib 0.066 | [1] 0.015 | barasertib -0.007 | [2] -0.024 | volasertib 0.004 | [3] -0.008 | [4] 0.067 | [5] 0.029 | saracatinib -0.025 | sotrastaurin -0.031 | alvocidib 0.057 | Tubastatin A 0.052 | [6] 0.068 | defactinib 0.019 | [7] -0.049 | encorafenib -0.013 | [8] -0.031 | [9] -0.012

Next results

NT5C (UniProt Q8TCD5)
inactive: vemurafenib -0.011 | [1] 0.032 | barasertib -0.091 | [2] -0.038 | volasertib -0.023 | [3] 0.016 | [4] 0.261 | [5] 0 | saracatinib 0 | sotrastaurin 0.002 | alvocidib 0.004 | Tubastatin A 0.033 | [6] 0.009 | defactinib -0.019 | [7] 0.002 | encorafenib -0.035 | [8] -0.026 | alisertib 0.074 | [9] -0.068 | gefitinib 0.05

NTPCR (UniProt Q9BSD7)
inactive: vemurafenib 0.055 | [1] -0.001 | barasertib 0.016 | [2] 0.005 | volasertib -0.066 | [3] 0.032 | [4] -0.038 | [5] -0.021 | saracatinib -0.009 | sotrastaurin 0.011 | alvocidib 0.007 | Tubastatin A -0.163 | [6] 0.055 | defactinib 0.009 | [7] 0.027 | encorafenib 0.005 | [8] -0.007 | alisertib 0.007 | [9] 0.058 | gefitinib -0.057

NRIP3 (UniProt Q9NQ35)
inactive: vemurafenib 0.191 | [2] 0.065 | [4] 0.002 | [5] 0.11 | alvocidib 0.078 | defactinib -0.159 | encorafenib 0.166 | [8] 0.129
